This passage reports binding results from PMC11658232.

The chains behind the UniProt entries cited, without tags or fusion partners. Residues count along the entry.
UniProt Q9Y5K6: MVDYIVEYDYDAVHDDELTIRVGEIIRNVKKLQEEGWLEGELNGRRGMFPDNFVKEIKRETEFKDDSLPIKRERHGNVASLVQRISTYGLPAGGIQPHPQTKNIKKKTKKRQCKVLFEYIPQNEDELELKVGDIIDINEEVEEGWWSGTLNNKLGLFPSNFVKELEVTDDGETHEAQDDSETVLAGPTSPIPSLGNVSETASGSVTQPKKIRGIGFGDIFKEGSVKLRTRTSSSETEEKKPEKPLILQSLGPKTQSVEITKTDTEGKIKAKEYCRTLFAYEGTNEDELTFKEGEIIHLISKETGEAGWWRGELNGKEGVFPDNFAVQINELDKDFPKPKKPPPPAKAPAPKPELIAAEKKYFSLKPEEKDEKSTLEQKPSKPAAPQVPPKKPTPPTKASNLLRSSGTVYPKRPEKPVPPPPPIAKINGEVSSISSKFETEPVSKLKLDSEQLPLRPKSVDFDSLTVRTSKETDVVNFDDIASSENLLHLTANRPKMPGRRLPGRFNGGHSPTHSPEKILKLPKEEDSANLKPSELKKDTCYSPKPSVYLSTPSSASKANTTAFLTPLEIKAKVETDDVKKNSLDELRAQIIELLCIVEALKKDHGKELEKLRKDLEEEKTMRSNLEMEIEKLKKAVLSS
UniProt P07333, residues 20-972: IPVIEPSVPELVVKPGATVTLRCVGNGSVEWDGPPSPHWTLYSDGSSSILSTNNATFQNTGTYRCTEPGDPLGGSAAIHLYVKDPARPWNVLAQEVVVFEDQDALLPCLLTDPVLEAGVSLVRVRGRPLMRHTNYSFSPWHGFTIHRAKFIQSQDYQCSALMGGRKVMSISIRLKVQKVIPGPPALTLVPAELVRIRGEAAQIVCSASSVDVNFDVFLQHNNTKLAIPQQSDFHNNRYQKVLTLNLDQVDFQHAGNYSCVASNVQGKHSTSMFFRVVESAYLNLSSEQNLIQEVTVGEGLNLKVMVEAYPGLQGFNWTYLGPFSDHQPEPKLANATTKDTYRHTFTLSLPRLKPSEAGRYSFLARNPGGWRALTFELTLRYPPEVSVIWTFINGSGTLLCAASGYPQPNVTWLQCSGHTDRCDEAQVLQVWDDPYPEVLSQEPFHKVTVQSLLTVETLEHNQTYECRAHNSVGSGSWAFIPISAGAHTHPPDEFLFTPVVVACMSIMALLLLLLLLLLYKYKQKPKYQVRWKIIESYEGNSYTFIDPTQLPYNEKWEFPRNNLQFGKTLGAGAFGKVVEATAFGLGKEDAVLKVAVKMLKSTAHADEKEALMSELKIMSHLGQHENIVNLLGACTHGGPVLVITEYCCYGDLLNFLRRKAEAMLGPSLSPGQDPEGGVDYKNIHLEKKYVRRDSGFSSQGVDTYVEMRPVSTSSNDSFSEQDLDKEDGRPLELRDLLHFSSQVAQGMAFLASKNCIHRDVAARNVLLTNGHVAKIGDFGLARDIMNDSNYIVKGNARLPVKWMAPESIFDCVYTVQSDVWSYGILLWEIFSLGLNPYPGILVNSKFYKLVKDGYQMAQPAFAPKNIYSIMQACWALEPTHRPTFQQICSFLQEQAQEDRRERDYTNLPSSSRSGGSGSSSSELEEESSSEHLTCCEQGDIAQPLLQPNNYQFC
UniProt Q9JLQ0: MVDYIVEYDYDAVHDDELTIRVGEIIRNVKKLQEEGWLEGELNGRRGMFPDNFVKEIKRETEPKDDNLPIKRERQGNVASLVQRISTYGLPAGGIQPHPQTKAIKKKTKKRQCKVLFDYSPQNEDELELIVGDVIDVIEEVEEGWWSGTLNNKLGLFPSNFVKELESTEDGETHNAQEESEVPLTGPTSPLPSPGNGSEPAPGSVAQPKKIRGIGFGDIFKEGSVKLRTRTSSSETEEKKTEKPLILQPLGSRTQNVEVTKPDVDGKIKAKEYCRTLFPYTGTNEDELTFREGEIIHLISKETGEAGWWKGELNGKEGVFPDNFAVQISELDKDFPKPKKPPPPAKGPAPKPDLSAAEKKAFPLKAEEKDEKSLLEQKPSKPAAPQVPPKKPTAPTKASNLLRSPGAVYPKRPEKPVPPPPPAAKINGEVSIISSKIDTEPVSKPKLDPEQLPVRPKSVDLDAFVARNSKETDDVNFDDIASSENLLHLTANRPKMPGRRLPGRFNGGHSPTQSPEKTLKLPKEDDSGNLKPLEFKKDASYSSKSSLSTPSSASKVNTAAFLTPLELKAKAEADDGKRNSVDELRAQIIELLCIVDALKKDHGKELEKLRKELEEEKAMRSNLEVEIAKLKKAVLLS

The target in one assay is CD2AP-MYC (UniProt Q9Y5K6). The assay can be described thus: co-IP; HEK293T transfected with CD2AP-MYC with or without CSF1R-HA, 24 h; TNEN buffer (50 mM Tris-HCl pH 8.0, 150 mM NaCl, 2 mM EDTA, 1% Nonidet P-40); anti-MYC antibody and Protein A/G MagBeads, 4 °C overnight; blot with anti-HA.
Assay [1] addresses T1, endogenous CD93 (mouse brain) (mouse (endogenous in mouse brain)) (UniProt O89103).
T1 sequence: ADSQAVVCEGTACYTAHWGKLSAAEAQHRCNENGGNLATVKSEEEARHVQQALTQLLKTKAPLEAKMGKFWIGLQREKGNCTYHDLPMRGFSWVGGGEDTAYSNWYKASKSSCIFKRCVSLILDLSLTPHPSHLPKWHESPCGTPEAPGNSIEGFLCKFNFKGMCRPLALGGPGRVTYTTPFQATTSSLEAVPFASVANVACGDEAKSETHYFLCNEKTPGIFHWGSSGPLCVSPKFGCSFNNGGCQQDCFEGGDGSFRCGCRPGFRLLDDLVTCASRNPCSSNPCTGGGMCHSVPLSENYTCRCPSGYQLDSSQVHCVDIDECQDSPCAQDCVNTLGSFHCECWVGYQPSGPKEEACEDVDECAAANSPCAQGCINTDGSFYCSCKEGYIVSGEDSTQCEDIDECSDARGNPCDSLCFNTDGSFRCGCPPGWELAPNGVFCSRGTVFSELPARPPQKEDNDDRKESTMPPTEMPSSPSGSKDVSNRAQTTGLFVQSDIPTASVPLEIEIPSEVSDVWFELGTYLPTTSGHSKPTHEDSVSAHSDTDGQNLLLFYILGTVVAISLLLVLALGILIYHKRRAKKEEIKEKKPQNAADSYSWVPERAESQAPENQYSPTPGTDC
The assay can be described thus: co-IP; endogenous proteins, mouse brain tissue lysed in TNEN buffer (50 mM Tris-HCl pH 8.0, 150 mM NaCl, 2 mM EDTA, 1% Nonidet P-40); anti-CSF1R or anti-CD93 antibody and Protein A/G MagBeads, 4 °C overnight; blot for CD2AP.

Assay [2] deals with T2, endogenous CSF1R (mouse brain) (mouse (endogenous in mouse brain)) (UniProt P09581).
T2 sequence: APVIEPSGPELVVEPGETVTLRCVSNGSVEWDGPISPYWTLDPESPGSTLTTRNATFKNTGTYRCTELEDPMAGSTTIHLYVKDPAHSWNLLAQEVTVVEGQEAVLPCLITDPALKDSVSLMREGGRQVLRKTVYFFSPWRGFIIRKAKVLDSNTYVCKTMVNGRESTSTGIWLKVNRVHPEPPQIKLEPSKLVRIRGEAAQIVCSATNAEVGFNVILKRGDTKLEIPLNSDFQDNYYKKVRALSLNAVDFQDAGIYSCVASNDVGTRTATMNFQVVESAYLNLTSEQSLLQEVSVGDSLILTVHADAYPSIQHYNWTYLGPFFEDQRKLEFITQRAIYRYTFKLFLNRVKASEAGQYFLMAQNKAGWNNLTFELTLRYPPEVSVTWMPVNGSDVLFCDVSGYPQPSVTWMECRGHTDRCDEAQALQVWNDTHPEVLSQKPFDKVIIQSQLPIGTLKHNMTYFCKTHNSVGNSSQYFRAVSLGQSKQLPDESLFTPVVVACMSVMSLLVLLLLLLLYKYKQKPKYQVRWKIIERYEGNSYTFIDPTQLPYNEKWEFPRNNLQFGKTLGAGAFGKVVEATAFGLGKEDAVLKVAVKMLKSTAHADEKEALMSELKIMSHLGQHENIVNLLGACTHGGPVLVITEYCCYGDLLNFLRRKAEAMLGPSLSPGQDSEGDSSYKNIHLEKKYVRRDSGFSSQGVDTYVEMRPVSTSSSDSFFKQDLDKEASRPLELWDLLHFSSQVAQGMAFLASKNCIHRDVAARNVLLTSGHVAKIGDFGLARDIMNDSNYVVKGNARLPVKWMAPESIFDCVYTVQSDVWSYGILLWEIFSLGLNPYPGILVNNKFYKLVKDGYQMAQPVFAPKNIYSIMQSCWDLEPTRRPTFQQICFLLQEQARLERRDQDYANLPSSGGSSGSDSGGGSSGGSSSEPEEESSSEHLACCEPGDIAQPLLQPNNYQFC
The assay is described as above.

Results are given in words; binding and its absence hold for the method and conditions named. Binding seen in cells or lysates may run through a third protein. Some entries that bind do so weakly or less than the wild type.

As to “CSF1R-HA (from UniProt P07333 20-972) (receptor)”, in the assay with CD2AP-MYC, the binding entry is listed as “binds”. Turning to “endogenous CD2AP (mouse brain) (from UniProt Q9JLQ0 1-637)”, the binding entry in assay [1] is on record as “no binding”; in assay [2], “binds”.
